Primary screen of a compound library

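Whole-parasite assay of Trypanosoma brucei over 72 hours; the read-out is not stated. Concentration: 30 µM. Higher reads as stronger inhibition (inferred: compounds with an IC50 in retests scored well above the rest). Values scatter widely below zero; nearly all retest evidence comes from the higher of the two concentrations used. Size under these conditions: about 64,000 compounds, about 940 of them at 50% or above in at least one test.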

Results are given as percent effect. How 0% and 100% were set is not recorded. Most values in the screen are low, and negative values occur. The compounds are a random part of those screened.

compound: [H][C@@]12CCN(C(=O)COC3CCCC3)C[C@]1(COCC1CC1)CCO2
percent effect: -57.99%

compound: Cc1noc(C)c1C(=O)N(Cc1ccsc1)CC1CCCO1 (stereo not drawn)
percent effect: -40.57%

compound: COCCN(C)CCN1CC2(CCN(C3CCOCC3)CC2)OC1=O
percent effect: -37.9%

compound: CCN1CCCC(O)(CN(C)Cc2c(C)nn(C)c2C)C1 (stereo not drawn)
percent effect: -24.65%

compound: Cc1cccc(CN2CCn3c(COc4ncccn4)nnc3C2)n1
percent effect: 25.96%

compound: Cc1cccc(C(=O)N2CC(=O)N(c3ccccc3Cl)CC2C)n1 (stereo not drawn)
percent effect: -156.2%

compound: CC(=O)N(C)c1nc(CN2CCCCC2Cn2cncn2)cs1 (stereo not drawn)
percent effect: -23.52%

compound: CCCNC(=O)c1cc2c(nc1O)CCC(C)C2 (stereo not drawn)
percent effect: -8.539%

compound: CC(C)(C)C(=O)NCCCC(=O)NC(C)(C)c1ccc2c(c1)OCO2
percent effect: -40.03%

compound: CCc1nc(CN2CCCN(CC(O)c3ccccc3)CC2)no1 (stereo not drawn)
percent effect: -12.41%

compound: Cc1nc(CN2CCN(Cc3ccoc3)Cc3cccnc32)cs1.O=C(O)C(F)(F)F.O=C(O)C(F)(F)F.O=C(O)C(F)(F)F
percent effect: -28.59%

compound: COc1cc(C)ccc1S(=O)(=O)N1CC[C@](C)(O)[C@H](C)C1
percent effect: 38.85%

compound: CS(=O)(=O)NCC(=O)NC1(c2ccc(Cl)c(Cl)c2)CC1
percent effect: -41.11%

compound: CCc1ccc(S(=O)(=O)NCCOc2ccc3nnc(C)n3n2)s1
percent effect: -10.29%

compound: Cc1cc(CN2CCN(Cc3ccc(C#N)cc3OC(F)F)CC2)no1
percent effect: -7.618%

compound: CC(C)(O)CCc1cccc(C(=O)N2CCC[C@H]2CN2CCCC2)c1
percent effect: -3.518%

compound: CC(c1cc(O)nc(NC2CCCC2)n1)n1ncc2ccccc2c1=O (stereo not drawn)
percent effect: 6.636%

compound: CS(=O)(=O)CCN1CCC(Nc2c(Cl)cccc2C#N)CC1
percent effect: -21.68%

compound: CCc1cccc(N2CCC(NC(=O)CCNC(N)=O)CC2)c1
percent effect: -3.181%

compound: Cn1ncc2c1NC(=O)CC2c1cc2c(cc1Cl)OCO2 (stereo not drawn)
percent effect: 11.41%

compound: O=C(O)C(F)(F)F.[H][C@]12CCC[C@@H](CNc3ccccn3)[C@@]1([H])CN(Cc1nccs1)C2
percent effect: -12.55%

compound: O[C@@H]1CN(c2nc3ccccc3o2)CC[C@H]1c1ccc2c(c1)OCO2
percent effect: -39.84%

compound: CN(CC1CCOC1)S(=O)(=O)c1cccc(C(=O)N2CCCCCC2)c1 (stereo not drawn)
percent effect: -16.42%

compound: CCc1nc(C2CCCN2C(=O)c2ccc3c(c2)COC3)no1 (stereo not drawn)
percent effect: -5.384%

compound: CCC(C)NC(=O)CS(=O)(=O)Cc1nc(-c2cccs2)no1 (stereo not drawn)
percent effect: 4.99%

compound: CSc1ccc(C2CC(=O)Nc3c2c(=O)[nH]c2ncnn32)cc1 (stereo not drawn)
percent effect: -26.04%

compound: CC(C)CC(CCO)CNC(=O)N1CCOC2(CCCC2)C1 (stereo not drawn)
percent effect: -58.09%

compound: O=C(O)C(F)(F)F.O=C(O)C(F)(F)F.[H][C@@]12OCCN(C(=O)c3cncc(C)c3)[C@@]1([H])CC[C@H]2OCCN(C)C
percent effect: -21.9%

compound: CCCNC(=O)Nc1ccc2c(c1)N(S(=O)(=O)CC)CC2
percent effect: -18.4%

compound: O=C(O)C(F)(F)F.O=C(O)C(F)(F)F.O=C(O)C(F)(F)F.O=C(O)C(F)(F)F.[H][C@@]12CN(Cc3ccccn3)C[C@]1([H])OCCN2CCN(C)C
percent effect: -42.15%

compound: CN(C)c1ncc(CN2CCC(O)(c3ccccc3F)CC2)cn1.O=C(O)CC(O)(CC(=O)O)C(=O)O
percent effect: 7.624%

compound: O=C(c1cnn[nH]1)N(CCCO)Cc1cccnc1
percent effect: -11.91%

compound: Cc1ccc(CN2CC[C@H](c3nnc(COc4ccc(F)cc4)o3)C2)o1
percent effect: -24.27%

compound: CCc1nc2n(n1)CCCC2NC(=O)Nc1cccc(F)c1F (stereo not drawn)
percent effect: 3.536%

compound: COC(=O)CNC(=O)c1cccc(C(=O)N(C)c2ccccc2)c1
percent effect: -28.68%

compound: O=C(O)C(F)(F)F.O=C(O)C(F)(F)F.c1csc(CN2CCCC3(COCCN(Cc4c[nH]nn4)C3)C2)c1 (stereo not drawn)
percent effect: 4.375%

compound: COCCc1noc(C2CCN(S(=O)(=O)c3cccs3)CC2)n1
percent effect: -68.33%

compound: COc1cccc(-n2nnc(C(=O)N3CCCCCC3)c2C)c1
percent effect: 2.151%

compound: CC(=O)Nc1ccc(CNc2cccc(CS(C)(=O)=O)c2)cc1
percent effect: 7.226%

compound: Cc1nc(S(=O)(=O)N2CCSC3(CCCCC3)C2)cn1C
percent effect: 11.64%

compound: Cc1ccc2nc(CN(Cc3ccc(C)o3)C(C)C)cc(=O)n2c1
percent effect: -406.4%

compound: O=C(O)C(F)(F)F.O=C(O)C(F)(F)F.c1cnc(N2CCC3(CCN(CC4CCOCC4)CC3)C2)nc1
percent effect: -13.92%

compound: [H][C@@]12CCC(=O)N(c3ccccc3)[C@]1([H])CCN2C(=O)C1CCOCC1
percent effect: -6.537%

2 of the entries, repeated:

| compound | percent effect |
|---|---|
| `CSc1ccc(C2CC(=O)Nc3c2c(=O)[nH]c2ncnn32)cc1` (stereo not drawn) | -26.04% |
| `O[C@@H]1CN(c2nc3ccccc3o2)CC[C@H]1c1ccc2c(c1)OCO2` | -39.84% |

Measurements from “University of Dundee, Small-Polar-MMV Screening Library” (2021), ChEMBL document CHEMBL3988442.